What all share (format): physicochemical
Data set [1] in a line: Non-specific (thermal) background (Example XLI). Conditions: 0.4 mM dioxetane at pH 10.0, 31.5° C., no enzyme.
Data set [2] is described as follows: Background signal in two buffers, Turner 20E (Example XVIII). The following applies: 1 mM Magnesium Chloride.
Data set [3] is described as follows: Thermal background (Example XXI). The following applies: 0.1 M diethanolamine, 1 mM MgCl2, pH 10.0 at 30° C., no enzyme.
Setting [4] is: 0.05 M Sodium Carbonate/Sodium Bicarbonate, pH 9.5.
Where [5] appears, read: 0.1 M Diethanolamine, 0.02% Sodium Azide, pH 10.0.

For `COC1(c2cccc(OP(=O)(O)O)c2)OOC12C1CC3CC2CC(O)(C3)C1` (single isomer, unassigned) [A-OH-AMPPD, disodium 3-(4-methoxyspiro-[1,2-dioxetane-3,2'-(5'-hydroxy)tricyclo[3.3.1.1^3,7]decan]-4-yl)phenyl phosphate], the “NON-SPECIFIC BACKGROUND 0.4 mM RELATIVE LUMINOMETER UNITS” value in data set [1] (listed as HO-AMPPD-A) is 0.92 RELATIVE LUMINOMETER UNITS. The “BACKGROUND AT 0.4 Mn (TLU)” value is given as 1.20 TLU in data set [2] (setting [4]) and 0.95 TLU in data set [2] (setting [5]).
Turning to `COC1(c2cccc(OP(=O)(O)O)c2)OOC12C1CC3CC2CC(O)(C3)C1` (single isomer, unassigned) [B-OH-AMPPD, disodium 3-(4-methoxyspiro-[1,2-dioxetane-3,2'-(5'-hydroxy)tricyclo[3.3.1.1^3,7]decan]-4-yl)phenyl phosphate], in data set [1] (listed as HO-AMPPD-B), the “NON-SPECIFIC BACKGROUND 0.4 mM RELATIVE LUMINOMETER UNITS” value was 1.35 RELATIVE LUMINOMETER UNITS. Further, the entries for the “BACKGROUND AT 0.4 Mn (TLU)” value in data set [2] (setting [4]) and in data set [2] (setting [5]) were 1.72 TLU and 1.32 TLU, respectively.
`COC12CC3CC(C1)C1(OOC1(OC)c1cccc(OP(=O)(O)O)c1)C(C3)C2` (single isomer, unassigned) [CH3 O-AMPPD-A]: in data set [1], the “NON-SPECIFIC BACKGROUND 0.4 mM RELATIVE LUMINOMETER UNITS” value is 0.83 RELATIVE LUMINOMETER UNITS.
Regarding `COC1(c2cccc(OP(=O)(O)O)c2)OOC12C1CC3CC2CC(O)(C3)C1` (single isomer, unassigned) [HO-AMPPD], in data set [3], the “BACKGROUND AT 0.4 mM (TLU)” value came out at 0.83 TLU.
For the molecule `COC1(c2cccc(OP(=O)(O)O)c2)OOC12C1CC3CC2CC(I)(C3)C1` (single isomer, unassigned) [ISPD-A], in data set [1], the “NON-SPECIFIC BACKGROUND 0.4 mM RELATIVE LUMINOMETER UNITS” value is given as 0.47 RELATIVE LUMINOMETER UNITS.
As for `COC1(c2cccc(OP(=O)(O)O)c2)OOC12C1CC3CC2CC(I)(C3)C1` (single isomer, unassigned) [ISPD-B], the “NON-SPECIFIC BACKGROUND 0.4 mM RELATIVE LUMINOMETER UNITS” value in data set [1] was 0.37 RELATIVE LUMINOMETER UNITS.
As for `COC1(c2cccc(OP(=O)(O)O)c2)OOC12C1CC3CC2CC(OC(C)C)(C3)C1` (single isomer, unassigned) [i-PrO-AMPPD-A], the “NON-SPECIFIC BACKGROUND 0.4 mM RELATIVE LUMINOMETER UNITS” value in data set [1] is 0.98 RELATIVE LUMINOMETER UNITS.
On the same count and under the same terms, next, `COC1(c2cccc(OP(=O)(O)O)c2)OOC12C1CC3CC2CC(OC(C)C)(C3)C1` (single isomer, unassigned) [i-PrO-AMPPD-B]: 1.74 RELATIVE LUMINOMETER UNITS.
For the molecule `COC1(c2cccc(OP(=O)(O)O)c2)OOC12C1CC3CC(C1)CC2C3` (stereo not shown) [AMPPD, 3-(4-methoxyspiro[1,2-dioxetane-3,2'-triyclo[3.3.1.1^3,7]decan]-4-yl)phenyl phosphate, reference compound], in data set [1], the “NON-SPECIFIC BACKGROUND 0.4 mM RELATIVE LUMINOMETER UNITS” value is reported as 1.95 RELATIVE LUMINOMETER UNITS. The “BACKGROUND AT 0.4 mM (TLU)” value in data set [3] came to 1.83 TLU. Also, the “BACKGROUND AT 0.4 Mn (TLU)” value in data set [2] (setting [4]) stood at 1.96 TLU; in data set [2] (setting [5]), 2.09 TLU.
Consider `COC1(c2cccc(OP(=O)(O)O)c2)OOC12C1CC3CC2CC(Br)(C3)C1` (stereo not shown) [Br-AMPPD, disodium 3-(4-methoxyspiro-[1,2-dioxetane-3,2'-(5'-bromo)tricyclo[3.3.1.1^3,7]decan]-4-yl) phenyl phosphate], for which the “BACKGROUND AT 0.4 mM (TLU)” value in data set [3] stood at 0.78 TLU. The “BACKGROUND AT 0.4 Mn (TLU)” value in data set [2] (setting [4]) came out at 1.35 TLU; in data set [2] (setting [5]), 1.13 TLU.
Regarding `COC1(c2cccc(OP(=O)(O)O)c2)OOC12C1CC3CC2CC(Br)(C3)C1` (stereo not shown) [BrSPD], the “NON-SPECIFIC BACKGROUND 0.4 mM RELATIVE LUMINOMETER UNITS” value in data set [1] is 0.93 RELATIVE LUMINOMETER UNITS.
Regarding `COC12CC3CC(C1)C1(OOC1(OC)c1cccc(OP(=O)(O)O)c1)C(C3)C2` (stereo not shown) [CH3 O--AMPPD], the “BACKGROUND AT 0.4 mM (TLU)” value in data set [3] was 0.71 TLU.
As for `COC1(c2cccc(OP(=O)(O)O)c2)OOC12C1CC3CC2CC(Cl)(C3)C1` (stereo not shown) [CSPD], the “NON-SPECIFIC BACKGROUND 0.4 mM RELATIVE LUMINOMETER UNITS” value in data set [1] was 0.96 RELATIVE LUMINOMETER UNITS.
With `COC1(c2cccc(OP(=O)(O)O)c2)OOC12C1CC3CC2CC(Cl)(C3)C1` (stereo not shown) [Cl-AMPPD, disodium 3-(4-methoxyspiro-[1,2-dioxetane-3,2'-(5'-chloro)tricyclo[3.3.1.1^3,7]decan]-4-yl) phenyl phosphate], in data set [3], the “BACKGROUND AT 0.4 mM (TLU)” value was determined as 0.83 TLU. In addition, the entries for the “BACKGROUND AT 0.4 Mn (TLU)” value in data set [2] (setting [4]) and in data set [2] (setting [5]) were 0.93 TLU and 0.77 TLU, respectively.
In the case of `COC1(c2cccc(OP(=O)(O)O)c2)OOC12C1CC3CC2CC(F)(C3)C1` (stereo not shown) [FSPD], in data set [1], the “NON-SPECIFIC BACKGROUND 0.4 mM RELATIVE LUMINOMETER UNITS” value is recorded as 0.45 RELATIVE LUMINOMETER UNITS.
As for `COC1(c2cccc(OP(=O)(O)O)c2)OOC12C1CC3CC2CC(I)(C3)C1` (stereo not shown) [I--AMPPD], in data set [3], the “BACKGROUND AT 0.4 mM (TLU)” value is on record as 0.46 TLU.
Regarding `CCCCOC12CC3CC(C1)C1(OOC1(OC)c1cccc(OP(=O)(O)O)c1)C(C3)C2` (stereo not shown) [n-BuO-AMPPD], the “NON-SPECIFIC BACKGROUND 0.4 mM RELATIVE LUMINOMETER UNITS” value in data set [1] is on record as 0.91 RELATIVE LUMINOMETER UNITS.

These data come from patent publication US5326882A, “Chemiluminescent 3-(substituted Adamant-2'-Ylidene) 1,2-dioxetanes” (Tropix, Inc., priority 1992, dated 1994).
